Laboratory results taken from patent US20180185309A1, “METHODS AND COMPOSITIONS FOR TREATING NEPHROPATHY” (The Regents of the University of California, priority 2015, published 2018).
At least one compound was matched to its structure with a doubt left.

Tests used:
[1] = cited from earlier work
[2] = test system: differentiated mouse E11 podocytes; assay: Immunoblots of ER stress, autophagy and fibrosis pathways in differentiated E11 podocytes; settings: basal (5.6 mM) and high (25 mM) glucose 72 h, inhibitor added 12 h prior to harvest, vs controls

In the case of `CCC(=O)N1CCC(NC(=O)Nc2ccc(OC(F)(F)F)cc2)CC1` [TPPU, 1-trifluoromethoxyphenyl-3-(1-propionylpiperidin-4-yl)urea], the “effect on acute pancreatitis in mice” value [1] is listed as “recapitulates the effects of sEH deficiency”, the “ER stress (pPERK, pIRE1α immunoblots)” value [2] is listed as “decreased ER stress” and the “autophagy (Beclin, LC3 immunoblots)” value [2] is listed as “enhanced autophagy”. For the same molecule, the “fibrosis (TGFβRII, pSmad2 immunoblots)” value [2] was “attenuated fibrosis”.
